Measured values as given in patent US20260200905A1, “MICROBIOCIDAL TETRAHYDROISOQUINOLINE DERIVATIVES” (SYNGENTA CROP PROTECTION AG, priority 2022, published 2026).
Some of these results come from one statement about several compounds together.

Tested on: Magnaporthe grisea (Pyricularia oryzae)
Assay type: in vivo
Settings: 200 ppm; rice leaf disc preventative, compared to untreated control

Row | SMILES | control of Magnaporthe grisea
1 | Cc1ncccc1C1CN(C(=O)c2cc(-c3ccc(F)cc3F)on2)Cc2ccccc21 (centres unmarked) [Compound P-13, [5-(2,4-difluorophenyl)isoxazol-3-yl]-[4-(2-methyl-3-pyridyl)-3,4-dihydro-1H-isoquinolin-2-yl]methanone] | at least 80%
2 | O=C(c1cc(-c2ccccc2)on1)N1Cc2ccccc2C(c2cnccc2Cl)C1 (centres unmarked) [Compound P-30, [4-(4-chloro-3-pyridyl)-3,4-dihydro-1H-isoquinolin-2-yl]-(5-phenylisoxazol-3-yl)methanone] | at least 80%
